Assay results published in PubChem BioAssay AID2662 (National Center for Advancing Translational Sciences (NCATS), 2010).
About 110 (0.038%) of roughly 290,000 compounds were called active. The inconclusive results got no clear call from the source; some entries with a clear call stand among them for comparison. Calls come from the whole dose curve; as a rule, active = well fitted inhibition curve with a large enough effect in the polarisation, with a control signal flat (not every such curve was filed as active); inconclusive = small, poorly fitted or top-dose-only effect, or effect the other way, or a change in a side signal; inactive = no such curve, though single readings can be large or run the other way; the % refers to the polarisation. Where the call is inconclusive, the potency comes from a doubtful curve fit. “Side channel” marks fits to a control or component signal instead of the main read-out.

Amino acid sequences for entries named in this document (tags omitted).
UniProt Q03164, whole entry, looked up: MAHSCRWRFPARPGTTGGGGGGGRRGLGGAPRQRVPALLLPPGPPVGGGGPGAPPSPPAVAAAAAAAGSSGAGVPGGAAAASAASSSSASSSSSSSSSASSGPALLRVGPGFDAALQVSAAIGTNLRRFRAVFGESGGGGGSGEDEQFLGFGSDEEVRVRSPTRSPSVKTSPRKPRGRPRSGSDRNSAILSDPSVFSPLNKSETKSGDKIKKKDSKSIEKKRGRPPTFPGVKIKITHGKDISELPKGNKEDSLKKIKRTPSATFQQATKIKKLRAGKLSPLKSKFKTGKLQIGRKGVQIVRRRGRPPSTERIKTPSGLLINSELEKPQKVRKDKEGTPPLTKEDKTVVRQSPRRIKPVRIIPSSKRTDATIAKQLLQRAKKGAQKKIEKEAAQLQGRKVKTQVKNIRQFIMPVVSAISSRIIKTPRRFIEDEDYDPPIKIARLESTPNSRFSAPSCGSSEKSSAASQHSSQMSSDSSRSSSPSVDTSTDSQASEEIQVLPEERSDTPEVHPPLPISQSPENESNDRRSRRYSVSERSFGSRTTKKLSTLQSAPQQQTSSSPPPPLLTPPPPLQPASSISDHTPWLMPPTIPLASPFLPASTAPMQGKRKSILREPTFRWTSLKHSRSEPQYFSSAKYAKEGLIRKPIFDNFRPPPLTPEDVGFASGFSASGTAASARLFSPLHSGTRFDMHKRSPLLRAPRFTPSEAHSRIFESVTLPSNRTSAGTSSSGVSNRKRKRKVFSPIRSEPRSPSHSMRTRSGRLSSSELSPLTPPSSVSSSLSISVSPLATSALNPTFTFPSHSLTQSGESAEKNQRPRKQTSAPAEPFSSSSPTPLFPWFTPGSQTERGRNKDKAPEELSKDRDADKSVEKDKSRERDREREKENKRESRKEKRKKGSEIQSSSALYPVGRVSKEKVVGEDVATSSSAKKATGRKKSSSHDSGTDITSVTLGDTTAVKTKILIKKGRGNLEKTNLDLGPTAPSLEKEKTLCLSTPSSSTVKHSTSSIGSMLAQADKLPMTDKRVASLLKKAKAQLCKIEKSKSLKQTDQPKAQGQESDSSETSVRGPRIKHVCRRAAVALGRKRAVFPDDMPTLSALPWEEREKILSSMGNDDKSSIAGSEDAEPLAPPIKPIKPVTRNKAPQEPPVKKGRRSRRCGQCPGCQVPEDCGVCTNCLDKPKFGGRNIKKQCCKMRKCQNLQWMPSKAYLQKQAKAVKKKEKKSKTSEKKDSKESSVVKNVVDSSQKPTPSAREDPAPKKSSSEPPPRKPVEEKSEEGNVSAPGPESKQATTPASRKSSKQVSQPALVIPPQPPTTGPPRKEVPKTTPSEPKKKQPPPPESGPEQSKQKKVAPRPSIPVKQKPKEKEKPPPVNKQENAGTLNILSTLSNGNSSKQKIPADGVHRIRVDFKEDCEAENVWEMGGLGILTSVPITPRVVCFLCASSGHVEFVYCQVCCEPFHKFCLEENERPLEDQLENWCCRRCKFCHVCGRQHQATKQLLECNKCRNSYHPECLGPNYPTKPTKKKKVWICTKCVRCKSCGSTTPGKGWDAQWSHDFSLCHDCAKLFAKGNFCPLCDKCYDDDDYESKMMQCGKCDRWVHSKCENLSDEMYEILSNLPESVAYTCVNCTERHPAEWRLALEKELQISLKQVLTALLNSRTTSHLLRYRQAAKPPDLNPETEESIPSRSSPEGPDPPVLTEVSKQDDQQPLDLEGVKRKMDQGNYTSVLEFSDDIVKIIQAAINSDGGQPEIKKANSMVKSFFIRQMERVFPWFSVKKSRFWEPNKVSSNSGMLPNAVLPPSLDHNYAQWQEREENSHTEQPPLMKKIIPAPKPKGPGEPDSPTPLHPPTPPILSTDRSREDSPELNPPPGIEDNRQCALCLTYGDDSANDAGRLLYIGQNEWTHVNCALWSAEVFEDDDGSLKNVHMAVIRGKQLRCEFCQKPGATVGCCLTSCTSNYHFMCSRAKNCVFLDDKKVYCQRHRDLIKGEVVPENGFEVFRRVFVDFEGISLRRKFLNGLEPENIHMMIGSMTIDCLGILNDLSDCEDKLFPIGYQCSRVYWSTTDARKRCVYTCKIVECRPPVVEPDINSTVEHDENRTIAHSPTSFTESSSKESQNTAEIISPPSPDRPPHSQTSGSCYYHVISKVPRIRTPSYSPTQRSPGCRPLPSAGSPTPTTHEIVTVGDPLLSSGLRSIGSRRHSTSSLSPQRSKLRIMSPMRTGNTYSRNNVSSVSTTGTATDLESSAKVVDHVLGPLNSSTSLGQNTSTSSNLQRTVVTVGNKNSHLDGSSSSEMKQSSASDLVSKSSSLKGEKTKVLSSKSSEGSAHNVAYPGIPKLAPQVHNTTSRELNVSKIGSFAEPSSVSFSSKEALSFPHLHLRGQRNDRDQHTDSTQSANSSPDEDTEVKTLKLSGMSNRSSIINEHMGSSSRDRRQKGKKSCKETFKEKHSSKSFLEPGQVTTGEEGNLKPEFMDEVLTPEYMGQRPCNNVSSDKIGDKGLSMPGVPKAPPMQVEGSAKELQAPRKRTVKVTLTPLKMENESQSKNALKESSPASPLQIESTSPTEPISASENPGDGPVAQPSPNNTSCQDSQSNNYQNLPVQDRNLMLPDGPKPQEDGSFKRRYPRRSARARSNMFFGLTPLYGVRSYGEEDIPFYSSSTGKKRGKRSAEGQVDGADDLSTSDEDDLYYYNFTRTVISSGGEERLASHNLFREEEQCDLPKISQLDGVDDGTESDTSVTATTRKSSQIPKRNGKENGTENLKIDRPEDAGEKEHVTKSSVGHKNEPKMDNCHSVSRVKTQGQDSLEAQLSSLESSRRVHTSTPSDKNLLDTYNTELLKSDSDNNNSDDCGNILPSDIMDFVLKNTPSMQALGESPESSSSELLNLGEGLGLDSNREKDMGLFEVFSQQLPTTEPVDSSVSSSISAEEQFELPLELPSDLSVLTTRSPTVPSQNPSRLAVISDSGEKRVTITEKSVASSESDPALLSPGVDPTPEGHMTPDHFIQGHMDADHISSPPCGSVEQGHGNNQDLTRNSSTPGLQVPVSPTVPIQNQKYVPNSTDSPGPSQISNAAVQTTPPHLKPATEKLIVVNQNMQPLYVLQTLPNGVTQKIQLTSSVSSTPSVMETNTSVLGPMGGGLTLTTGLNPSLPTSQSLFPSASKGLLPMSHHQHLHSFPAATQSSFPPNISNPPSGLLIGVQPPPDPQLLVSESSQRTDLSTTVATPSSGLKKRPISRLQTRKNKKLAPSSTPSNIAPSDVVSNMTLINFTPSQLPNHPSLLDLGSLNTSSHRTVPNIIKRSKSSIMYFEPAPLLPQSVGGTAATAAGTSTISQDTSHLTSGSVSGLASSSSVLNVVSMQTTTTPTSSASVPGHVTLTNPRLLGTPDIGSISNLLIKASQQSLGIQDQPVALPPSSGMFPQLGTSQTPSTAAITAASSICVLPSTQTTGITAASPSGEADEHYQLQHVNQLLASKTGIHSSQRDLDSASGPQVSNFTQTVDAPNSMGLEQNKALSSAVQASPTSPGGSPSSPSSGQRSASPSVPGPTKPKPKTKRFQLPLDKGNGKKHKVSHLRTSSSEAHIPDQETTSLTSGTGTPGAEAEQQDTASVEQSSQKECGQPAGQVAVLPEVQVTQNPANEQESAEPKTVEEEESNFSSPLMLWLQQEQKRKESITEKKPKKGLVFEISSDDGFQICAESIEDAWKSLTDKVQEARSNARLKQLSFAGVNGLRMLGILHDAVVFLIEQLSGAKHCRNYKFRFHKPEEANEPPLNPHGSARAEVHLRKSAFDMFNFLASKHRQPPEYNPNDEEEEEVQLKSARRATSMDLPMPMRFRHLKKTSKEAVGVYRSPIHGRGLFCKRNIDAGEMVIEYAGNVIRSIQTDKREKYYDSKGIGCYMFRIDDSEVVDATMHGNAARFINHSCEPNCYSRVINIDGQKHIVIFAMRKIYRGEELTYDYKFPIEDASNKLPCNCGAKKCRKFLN

These molecules were tested against Histone-lysine N-methyltransferase 2A (Homo sapiens) (UniProt Q03164) (assay: qHTS Fluorescence Polarization Assay for Inhibitors of MLL CXXC domain - DNA interaction). Settings: MLL-CXXC / FITC-HOXA9 DNA fluorescence polarization; activity change, negative = inhibition: at 115 µM (top of the series).
Procedure, shortened: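 Steps: dispense CXXC domain solution (7 uM) → pin compounds or unlabeled HOX-A9 DNA control → 5 min ambient → add FLSN-HOX-A9 solution (50 nM) → spin → 30 min ambient → fluorescence polarization. Tris pH 7.5/NaCl/DTT/BSA buffer.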
Potency is the fitted concentration of half-maximal effect.

SMILES	Potency	activity change, negative = inhibition
O=C1NC(Cc2ccccc2)C(=O)N1CC(=O)N1CCCc2ccccc21 (stereo not drawn)	inconclusive: 1.41 µM [fluorescent, side channel, full curve, poor fit]	
CCOC(=O)c1c(/N=C/N(C)C)sc(/C=N/Nc2ccccc2)c1-c1ccccc1		inactive: 3.94%
CC(=O)Oc1ccc(CC(C(=O)O)N2C(=O)c3ccccc3C2=O)cc1 (stereo not drawn)	inconclusive: 31.6 µM [inhibitor, single point]	
Cc1ccc2c(nc3s/c(=C\c4ccc(-c5ccccc5C(=O)O)o4)c(=O)n32)c1C	inconclusive: 3.98 µM [fluorescent, side channel, partial curve, poor fit]	
Cc1[nH]c2ccccc2c1/C=N\NC(=O)c1ccco1	inconclusive: 8.91 µM [quencher, side channel, single point]	
CCOc1ccc(N(CC(=O)N/N=C/c2ccc(OC(C)C)cc2)S(C)(=O)=O)cc1		inactive: 7.2%
CC(=O)c1cn(-c2ccc(Cl)cc2)c(=O)[nH]c1=O	inconclusive: 35.5 µM [fluorescent, side channel, single point]	
CN1C(=O)CSc2ccc(NC(=O)NCc3ccco3)cc21	inconclusive: 89.1 µM [quencher, side channel, single point]	
Cc1cc2oc(=O)c3c(c2cc1OCc1nn[nH]n1)CCCC3		inactive: -0.724%
CCOC(=O)c1cc(CC)sc1NC(=O)COC(=O)C1CCC1	inconclusive: 89.1 µM [quencher, side channel, single point]	
CCN1CCN(c2nn3c(=O)c4ccccc4nc3c3ccccc23)CC1	inconclusive: 39.8 µM [inhibitor, partial curve]	
Cc1ccc(C(=O)CSc2ccc(-c3ccncc3)nn2)cc1	inconclusive: 14.1 µM [fluorescent, side channel, full curve]	
COCCN(C(=O)COC(=O)CCC(=O)c1ccc(C)cc1)c1c(N)n(Cc2ccccc2)c(=O)[nH]c1=O	inconclusive: 17.8 µM [fluorescent, side channel, partial curve]	
CCOc1ccc(NC(=O)CSc2ncn[nH]2)c([N+](=O)[O-])c1		inactive: 2.2%
CSc1ccc(C2C(C(=O)c3ccco3)=C(O)C(=O)N2c2nnc(SC)s2)cc1 (stereo not drawn)	inconclusive: 3.16 µM [fluorescent, side channel, full curve]	
O=C(O)C1=C[C@@H](c2coc3ccccc3c2=O)C[C@@H](OCc2ccc(CO)cc2)O1	inconclusive: 28.2 µM [inhibitor, single point]	
Cc1cccc(NC(=O)c2ccccc2NC(=O)C2CCCCC2)c1C	inconclusive: 28.2 µM [inhibitor, partial curve]	
O=c1c2ccccc2c(/C=N/c2nnc(Cc3ccccc3)s2)c(O)n1-c1ccc(Cl)cn1	inconclusive: 6.31 µM [fluorescent, side channel, full curve]	
CC1CCN(CCOCCOc2ccc(Cl)cc2Br)CC1		inactive: 2.3%
COc1ccc(-c2cnc3c(-c4ccc(F)cc4)cnn3c2N)cc1	inconclusive: 79.4 µM [fluorescent, side channel, single point]	

SMILES	Potency	activity change, negative = inhibition
COc1ccc(OCc2cc(C(=O)N(C)Cc3cc(C4CC4)n[nH]3)no2)c(Cl)c1	inconclusive: 35.5 µM [fluorescent, side channel, partial curve]	
CC1(C)C(=O)OC(C(=O)c2ccc(Cl)cc2)C(C)(C)C1=O (stereo not drawn)	inconclusive: 4.47 µM [quencher, side channel, partial curve]	
CC(Oc1ccccc1)C(=O)NNC(=O)c1ccccn1 (stereo not drawn)		inactive: 18.6%
COC(=O)CCC(=O)Nc1ccc(Cl)c(Cl)c1		inactive: -5.51%
CCOC(=O)c1ccc(-c2ccc(/C=N/NC(=O)CN(c3cccc(C)c3)S(C)(=O)=O)o2)cc1	inconclusive: 7.08 µM [fluorescent, side channel, partial curve]	
O=C(CCC(=O)c1ccc(F)cc1)Nc1cccc(Br)c1	inconclusive: 35.5 µM [fluorescent, side channel, partial curve]	
Cn1ncc(Cl)c1C(=O)N/N=C/c1ccccn1		inactive: -11.3%
Nc1[nH]n(-c2ccccc2)c(=O)c1N=Nc1ccc2c(c1)OCO2	inconclusive: 5.62 µM [inhibitor, partial curve]	
O=c1[nH]c2cc(Br)cnc2nc1/C=C(\O)c1ccc(F)cc1	inconclusive: 2.82 µM [fluorescent, side channel, full curve]	
Oc1cc(NCc2cccnc2)ccc1-c1nc2ccccc2o1		inactive: -0.389%
O=C(CCNC(=O)c1ccccc1Cl)Nc1cc(S(=O)(=O)N2CCOCC2)ccc1N1CCOCC1	inconclusive: 2.82 µM [inhibitor, full curve, poor fit]	
Cc1cccc(NC(=O)c2cc(-c3ccc(C)c(C)c3O)n[nH]2)c1	inconclusive: 3.98 µM [quencher, side channel, single point]	
O=S(=O)(Nc1ccc(-c2nc3cccnc3s2)cc1)c1ccc(Cl)s1		inactive: 5.75%
O=C(/C=C1\SC(=O)NC1=O)Nc1ccc(C(=O)O)cc1	inconclusive: 44.7 µM [inhibitor, partial curve]	
CC(=O)Nc1cc2nc(C)n(Cc3ccccc3)c2nc1C	inconclusive: 31.6 µM [fluorescent, side channel, partial curve]	
Cc1nn(Cc2ccccc2)c(Cl)c1/C=C1\NC(=S)NC1=O	inconclusive: 50.1 µM [fluorescent, side channel, partial curve]	
CN(C)CCCNC(=S)NCCNc1nc2cc3c(cc2cc1C#N)OCO3		inactive: 3.33%
Cc1ccccc1NC(=O)CCC(=O)N/N=C/c1ccncc1	inconclusive: 35.5 µM [fluorescent, single point]	
O=C(Nc1ccc(NC(=O)c2ccc(Cl)c(S(=O)(=O)N3CCOCC3)c2)cc1)c1ccccc1		inactive: -3.18%
O=C(O)[C@H](Cc1ccccc1)N1C(=O)c2c(Cl)c(Cl)c(Cl)c(Cl)c2C1=O	inconclusive: 31.6 µM [inhibitor, partial curve]	
COc1ccc(S(=O)(=O)N2CCN(CC(=O)Nc3ccccc3Cl)CC2)cc1		inactive: 6.41%

SMILES	Potency	activity change, negative = inhibition
N#CC1(C#N)C(c2ccccc2)OC23CCCCCC2C1(C#N)C(=N)O3 (stereo not drawn)	active: 50.1 µM	
CCCCC[C@]12Cc3ccccc3C(O1)c1c(cc(C)oc1=O)O2		inactive: 0.339% [at 23 µM]
CC(=O)Nc1sc(N/N=C\c2ccccc2Cl)nc1-c1cccs1	inconclusive: 25.1 µM [fluorescent, side channel, partial curve, poor fit]	
CCN(CC)C(=O)c1sc2nc(-c3cccs3)cc(-c3ccc(Cl)cc3)c2c1N	inconclusive: 31.6 µM [fluorescent, side channel, partial curve]	
CC(=O)/C(=N/Nc1ccccc1)Sc1nnc(CCc2ccccc2)n1-c1ccccc1		inactive: 26.9%
Cc1cccc(C(=O)Nc2nnc(-c3ccc(C(C)(C)C)cc3)s2)c1	inconclusive: 70.8 µM [fluorescent, side channel, single point]	
CCOc1ccc2[nH]c3c(N4CCC5(CC4)OCCO5)ncnc3c2c1		inactive: -5.54%
O=C(O)c1ccccc1N/N=C/c1c(Sc2nnnn2-c2ccccc2)nc2ccccn2c1=O	inconclusive: 6.31 µM [fluorescent, side channel, full curve]	
CC(=O)Oc1ccc(/C=C2/SC(=S)N(Cc3ccccc3)C2=O)cc1	inconclusive: 15.8 µM [fluorescent, side channel, full curve]	
CC(C)(C)C(CN1CCCC1)OC(=O)c1ccccc1 (stereo not drawn)	inconclusive: 1.41 µM [fluorescent, side channel, partial curve, poor fit]	
CC(C)=CCCC1(C)C=Cc2c(c(C)cc3c2[nH]c2cc(O)ccc23)O1 (stereo not drawn)	inconclusive: 44.7 µM [quencher, side channel, single point]	
CCN1/C(=C/C(C)=O)Sc2ccc(OC)cc21	inactive	
COCCN(C(=O)COC(=O)CCc1nc2ccccc2s1)c1c(N)n(Cc2ccccc2)c(=O)[nH]c1=O	inconclusive: 10 µM [fluorescent, side channel, full curve, poor fit]	
Cc1ccc(C)c(N2CCN(C(=O)C3CCCN(S(=O)(=O)c4cnc[nH]4)C3)CC2)c1 (stereo not drawn)	inconclusive: 112 µM [quencher, side channel, partial curve, poor fit]	
COc1ccc(S(=O)(=O)N2CCN(CC3CC=CCC3)CC2)cc1 (stereo not drawn)		inactive: 1.85%
COc1ccc2nc3cc(Cl)ccc3c(Nc3cc(CN4CCCC4)c(O)c(CN4CCCC4)c3)c2n1	inconclusive: 11.2 µM [quencher, side channel, full curve]	
CSc1c(C#N)c(N)c(C#N)c2c1COC(C)(C)C2		inactive: -3.44%
Cc1ccc(NC(=O)CN2C(=O)/C(=C3\SC(=S)N(C4CCS(=O)(=O)C4)C3=O)c3ccccc32)cc1 (stereo not drawn)	inconclusive: 44.7 µM [fluorescent, side channel, single point]	
N#C/C(=C/c1ccc(OCc2ccc(C(=O)O)cc2)cc1)C(=O)Nc1ccccc1	inconclusive: 10 µM [inhibitor, full curve, poor fit]	
O=C(Nc1ccc(S(=O)(=O)N2CCCC2)cc1)c1cccs1		inactive: -1.96%
CCCNS(=O)(=O)c1cccc(C(=O)OCc2cc(=O)oc3cc(OC)ccc23)c1		inactive: 25.3%

Pulled one by one from above:
SMILES	Potency	activity change, negative = inhibition
CCN1/C(=C/C(C)=O)Sc2ccc(OC)cc21	inactive	
N#C/C(=C/c1ccc(OCc2ccc(C(=O)O)cc2)cc1)C(=O)Nc1ccccc1	inconclusive: 10 µM [inhibitor, full curve, poor fit]	
COCCN(C(=O)COC(=O)CCc1nc2ccccc2s1)c1c(N)n(Cc2ccccc2)c(=O)[nH]c1=O	inconclusive: 10 µM [fluorescent, side channel, full curve, poor fit]	
